Experimental data as given in the supplement of paper PMC11098740.
The other results are listed elsewhere or left out. Single values are uncertain, as repeats are few or missing.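 The assay uses a mixed pool of 41 HAP1 clones in which 61 cancer-associated proteins bear intron-inserted fluorescent tags, and clones are distinguished by image pattern. Results are compared against DMSO-treated control wells, and the BRD4 degrader dBET6 is the positive control.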

Chains of the proteins cited; added tags and fusions are not shown.
UniProt O14980, whole entry: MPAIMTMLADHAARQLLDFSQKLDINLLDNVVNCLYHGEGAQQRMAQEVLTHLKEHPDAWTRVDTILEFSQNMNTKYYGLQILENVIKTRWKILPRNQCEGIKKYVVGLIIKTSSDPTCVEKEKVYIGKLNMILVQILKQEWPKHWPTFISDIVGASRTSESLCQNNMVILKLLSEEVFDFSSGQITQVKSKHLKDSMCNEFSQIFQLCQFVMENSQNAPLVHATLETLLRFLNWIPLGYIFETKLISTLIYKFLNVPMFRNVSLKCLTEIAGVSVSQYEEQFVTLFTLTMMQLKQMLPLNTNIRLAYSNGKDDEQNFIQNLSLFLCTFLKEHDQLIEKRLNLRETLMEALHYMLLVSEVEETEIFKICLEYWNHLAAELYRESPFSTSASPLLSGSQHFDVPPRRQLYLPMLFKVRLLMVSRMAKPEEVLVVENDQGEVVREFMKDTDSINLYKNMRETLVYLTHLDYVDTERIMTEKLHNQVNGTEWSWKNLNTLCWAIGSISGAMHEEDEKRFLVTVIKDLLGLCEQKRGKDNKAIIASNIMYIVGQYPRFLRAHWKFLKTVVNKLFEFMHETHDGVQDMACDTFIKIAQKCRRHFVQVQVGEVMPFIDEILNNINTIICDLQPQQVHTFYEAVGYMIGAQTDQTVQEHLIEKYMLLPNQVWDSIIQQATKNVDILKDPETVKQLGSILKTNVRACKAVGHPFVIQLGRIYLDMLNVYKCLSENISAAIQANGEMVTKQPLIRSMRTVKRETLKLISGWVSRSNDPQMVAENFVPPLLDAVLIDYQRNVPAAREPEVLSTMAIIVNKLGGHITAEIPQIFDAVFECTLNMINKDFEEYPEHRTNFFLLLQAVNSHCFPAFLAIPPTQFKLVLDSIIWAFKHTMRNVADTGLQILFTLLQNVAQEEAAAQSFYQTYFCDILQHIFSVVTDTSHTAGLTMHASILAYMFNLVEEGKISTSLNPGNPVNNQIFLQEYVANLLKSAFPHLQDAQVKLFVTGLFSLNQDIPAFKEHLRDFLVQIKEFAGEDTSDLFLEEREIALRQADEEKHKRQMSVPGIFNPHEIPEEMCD

What was measured:
[1] = biological target: XPO1 (intron 15 mScarlet tag, HAP1) (UniProt O14980); experiment: XPO1 fluorescence intensity change vs DMSO (log2 fold change); higher = more XPO1 protein; details: 6 h
[2] = biological target: BRD4 (intron 10 mScarlet tag, HAP1) (UniProt O60885); experiment: BRD4 median nuclear fluorescence intensity change vs DMSO (log2 fold change); higher = more BRD4 protein; details: 6 h

Structure (SMILES)	XPO1 fluorescence intensity change (log2) [1]	BRD4 median nuclear fluorescence intensity change (log2) [2]
O=C(Nc1ccncc1)N1CCc2c(Br)cccc2C1 (10 µM)	0.0641	0.0488
CC1CCc2c(sc3nc(CCl)nc(N)c23)C1 (centres undefined) (10 µM)	-0.202	–
CCCN1C(=O)C(=O)c2cc(Cl)ccc21 (10 µM)	-0.0118	–
